{"source": "patent US20120003335A1", "about": "“CONSTITUTIVE ANDROSTANE RECEPTOR (CAR) AS A THERAPEUTIC TARGET FOR OBESITY AND TYPE TWO DIABETES” (UNIVERSITY OF PITTSBURGH-OF THE COMMONWEALTH SYSTEM OF …, priority 2008, published 2012)", "test_system": "ob/ob mice", "experiment": "Fasting serum glucose and lipid profile, ob/ob mice", "format": "in vivo", "from_the_text": "Since obesity is strongly associated with insulin resistance, a typical characteristic of type two diabetes, whether the CAR agonist can also improve insulin sensitivity was examined. […] The insulin sensitizing effect of TCPOBOP was also evident in ob/ob mice (FIGS. 3C and 3D).", "note": "For at least one compound, name, drawing or mass did not settle the structure."}
{"compound": "Clc1cnc(Oc2ccc(Oc3ncc(Cl)cc3Cl)cc2)c(Cl)c1", "note": "[TCPOBOP, 1,4-bis[2-(3,5 dichloropyridyloxy)] benzene]", "values": [{"measurement": "Fasting Glucose", "result": "128 .7 ± 23.4 mg/dl"}, {"measurement": "Insulin", "setting": "fasting serum", "result": "15.38.9 ± 1.85 ng/ml"}]}
